{
  "sequences": {"note": "Amino acid sequences for entries named in this document (tags omitted).", "UniProt Q80W93": "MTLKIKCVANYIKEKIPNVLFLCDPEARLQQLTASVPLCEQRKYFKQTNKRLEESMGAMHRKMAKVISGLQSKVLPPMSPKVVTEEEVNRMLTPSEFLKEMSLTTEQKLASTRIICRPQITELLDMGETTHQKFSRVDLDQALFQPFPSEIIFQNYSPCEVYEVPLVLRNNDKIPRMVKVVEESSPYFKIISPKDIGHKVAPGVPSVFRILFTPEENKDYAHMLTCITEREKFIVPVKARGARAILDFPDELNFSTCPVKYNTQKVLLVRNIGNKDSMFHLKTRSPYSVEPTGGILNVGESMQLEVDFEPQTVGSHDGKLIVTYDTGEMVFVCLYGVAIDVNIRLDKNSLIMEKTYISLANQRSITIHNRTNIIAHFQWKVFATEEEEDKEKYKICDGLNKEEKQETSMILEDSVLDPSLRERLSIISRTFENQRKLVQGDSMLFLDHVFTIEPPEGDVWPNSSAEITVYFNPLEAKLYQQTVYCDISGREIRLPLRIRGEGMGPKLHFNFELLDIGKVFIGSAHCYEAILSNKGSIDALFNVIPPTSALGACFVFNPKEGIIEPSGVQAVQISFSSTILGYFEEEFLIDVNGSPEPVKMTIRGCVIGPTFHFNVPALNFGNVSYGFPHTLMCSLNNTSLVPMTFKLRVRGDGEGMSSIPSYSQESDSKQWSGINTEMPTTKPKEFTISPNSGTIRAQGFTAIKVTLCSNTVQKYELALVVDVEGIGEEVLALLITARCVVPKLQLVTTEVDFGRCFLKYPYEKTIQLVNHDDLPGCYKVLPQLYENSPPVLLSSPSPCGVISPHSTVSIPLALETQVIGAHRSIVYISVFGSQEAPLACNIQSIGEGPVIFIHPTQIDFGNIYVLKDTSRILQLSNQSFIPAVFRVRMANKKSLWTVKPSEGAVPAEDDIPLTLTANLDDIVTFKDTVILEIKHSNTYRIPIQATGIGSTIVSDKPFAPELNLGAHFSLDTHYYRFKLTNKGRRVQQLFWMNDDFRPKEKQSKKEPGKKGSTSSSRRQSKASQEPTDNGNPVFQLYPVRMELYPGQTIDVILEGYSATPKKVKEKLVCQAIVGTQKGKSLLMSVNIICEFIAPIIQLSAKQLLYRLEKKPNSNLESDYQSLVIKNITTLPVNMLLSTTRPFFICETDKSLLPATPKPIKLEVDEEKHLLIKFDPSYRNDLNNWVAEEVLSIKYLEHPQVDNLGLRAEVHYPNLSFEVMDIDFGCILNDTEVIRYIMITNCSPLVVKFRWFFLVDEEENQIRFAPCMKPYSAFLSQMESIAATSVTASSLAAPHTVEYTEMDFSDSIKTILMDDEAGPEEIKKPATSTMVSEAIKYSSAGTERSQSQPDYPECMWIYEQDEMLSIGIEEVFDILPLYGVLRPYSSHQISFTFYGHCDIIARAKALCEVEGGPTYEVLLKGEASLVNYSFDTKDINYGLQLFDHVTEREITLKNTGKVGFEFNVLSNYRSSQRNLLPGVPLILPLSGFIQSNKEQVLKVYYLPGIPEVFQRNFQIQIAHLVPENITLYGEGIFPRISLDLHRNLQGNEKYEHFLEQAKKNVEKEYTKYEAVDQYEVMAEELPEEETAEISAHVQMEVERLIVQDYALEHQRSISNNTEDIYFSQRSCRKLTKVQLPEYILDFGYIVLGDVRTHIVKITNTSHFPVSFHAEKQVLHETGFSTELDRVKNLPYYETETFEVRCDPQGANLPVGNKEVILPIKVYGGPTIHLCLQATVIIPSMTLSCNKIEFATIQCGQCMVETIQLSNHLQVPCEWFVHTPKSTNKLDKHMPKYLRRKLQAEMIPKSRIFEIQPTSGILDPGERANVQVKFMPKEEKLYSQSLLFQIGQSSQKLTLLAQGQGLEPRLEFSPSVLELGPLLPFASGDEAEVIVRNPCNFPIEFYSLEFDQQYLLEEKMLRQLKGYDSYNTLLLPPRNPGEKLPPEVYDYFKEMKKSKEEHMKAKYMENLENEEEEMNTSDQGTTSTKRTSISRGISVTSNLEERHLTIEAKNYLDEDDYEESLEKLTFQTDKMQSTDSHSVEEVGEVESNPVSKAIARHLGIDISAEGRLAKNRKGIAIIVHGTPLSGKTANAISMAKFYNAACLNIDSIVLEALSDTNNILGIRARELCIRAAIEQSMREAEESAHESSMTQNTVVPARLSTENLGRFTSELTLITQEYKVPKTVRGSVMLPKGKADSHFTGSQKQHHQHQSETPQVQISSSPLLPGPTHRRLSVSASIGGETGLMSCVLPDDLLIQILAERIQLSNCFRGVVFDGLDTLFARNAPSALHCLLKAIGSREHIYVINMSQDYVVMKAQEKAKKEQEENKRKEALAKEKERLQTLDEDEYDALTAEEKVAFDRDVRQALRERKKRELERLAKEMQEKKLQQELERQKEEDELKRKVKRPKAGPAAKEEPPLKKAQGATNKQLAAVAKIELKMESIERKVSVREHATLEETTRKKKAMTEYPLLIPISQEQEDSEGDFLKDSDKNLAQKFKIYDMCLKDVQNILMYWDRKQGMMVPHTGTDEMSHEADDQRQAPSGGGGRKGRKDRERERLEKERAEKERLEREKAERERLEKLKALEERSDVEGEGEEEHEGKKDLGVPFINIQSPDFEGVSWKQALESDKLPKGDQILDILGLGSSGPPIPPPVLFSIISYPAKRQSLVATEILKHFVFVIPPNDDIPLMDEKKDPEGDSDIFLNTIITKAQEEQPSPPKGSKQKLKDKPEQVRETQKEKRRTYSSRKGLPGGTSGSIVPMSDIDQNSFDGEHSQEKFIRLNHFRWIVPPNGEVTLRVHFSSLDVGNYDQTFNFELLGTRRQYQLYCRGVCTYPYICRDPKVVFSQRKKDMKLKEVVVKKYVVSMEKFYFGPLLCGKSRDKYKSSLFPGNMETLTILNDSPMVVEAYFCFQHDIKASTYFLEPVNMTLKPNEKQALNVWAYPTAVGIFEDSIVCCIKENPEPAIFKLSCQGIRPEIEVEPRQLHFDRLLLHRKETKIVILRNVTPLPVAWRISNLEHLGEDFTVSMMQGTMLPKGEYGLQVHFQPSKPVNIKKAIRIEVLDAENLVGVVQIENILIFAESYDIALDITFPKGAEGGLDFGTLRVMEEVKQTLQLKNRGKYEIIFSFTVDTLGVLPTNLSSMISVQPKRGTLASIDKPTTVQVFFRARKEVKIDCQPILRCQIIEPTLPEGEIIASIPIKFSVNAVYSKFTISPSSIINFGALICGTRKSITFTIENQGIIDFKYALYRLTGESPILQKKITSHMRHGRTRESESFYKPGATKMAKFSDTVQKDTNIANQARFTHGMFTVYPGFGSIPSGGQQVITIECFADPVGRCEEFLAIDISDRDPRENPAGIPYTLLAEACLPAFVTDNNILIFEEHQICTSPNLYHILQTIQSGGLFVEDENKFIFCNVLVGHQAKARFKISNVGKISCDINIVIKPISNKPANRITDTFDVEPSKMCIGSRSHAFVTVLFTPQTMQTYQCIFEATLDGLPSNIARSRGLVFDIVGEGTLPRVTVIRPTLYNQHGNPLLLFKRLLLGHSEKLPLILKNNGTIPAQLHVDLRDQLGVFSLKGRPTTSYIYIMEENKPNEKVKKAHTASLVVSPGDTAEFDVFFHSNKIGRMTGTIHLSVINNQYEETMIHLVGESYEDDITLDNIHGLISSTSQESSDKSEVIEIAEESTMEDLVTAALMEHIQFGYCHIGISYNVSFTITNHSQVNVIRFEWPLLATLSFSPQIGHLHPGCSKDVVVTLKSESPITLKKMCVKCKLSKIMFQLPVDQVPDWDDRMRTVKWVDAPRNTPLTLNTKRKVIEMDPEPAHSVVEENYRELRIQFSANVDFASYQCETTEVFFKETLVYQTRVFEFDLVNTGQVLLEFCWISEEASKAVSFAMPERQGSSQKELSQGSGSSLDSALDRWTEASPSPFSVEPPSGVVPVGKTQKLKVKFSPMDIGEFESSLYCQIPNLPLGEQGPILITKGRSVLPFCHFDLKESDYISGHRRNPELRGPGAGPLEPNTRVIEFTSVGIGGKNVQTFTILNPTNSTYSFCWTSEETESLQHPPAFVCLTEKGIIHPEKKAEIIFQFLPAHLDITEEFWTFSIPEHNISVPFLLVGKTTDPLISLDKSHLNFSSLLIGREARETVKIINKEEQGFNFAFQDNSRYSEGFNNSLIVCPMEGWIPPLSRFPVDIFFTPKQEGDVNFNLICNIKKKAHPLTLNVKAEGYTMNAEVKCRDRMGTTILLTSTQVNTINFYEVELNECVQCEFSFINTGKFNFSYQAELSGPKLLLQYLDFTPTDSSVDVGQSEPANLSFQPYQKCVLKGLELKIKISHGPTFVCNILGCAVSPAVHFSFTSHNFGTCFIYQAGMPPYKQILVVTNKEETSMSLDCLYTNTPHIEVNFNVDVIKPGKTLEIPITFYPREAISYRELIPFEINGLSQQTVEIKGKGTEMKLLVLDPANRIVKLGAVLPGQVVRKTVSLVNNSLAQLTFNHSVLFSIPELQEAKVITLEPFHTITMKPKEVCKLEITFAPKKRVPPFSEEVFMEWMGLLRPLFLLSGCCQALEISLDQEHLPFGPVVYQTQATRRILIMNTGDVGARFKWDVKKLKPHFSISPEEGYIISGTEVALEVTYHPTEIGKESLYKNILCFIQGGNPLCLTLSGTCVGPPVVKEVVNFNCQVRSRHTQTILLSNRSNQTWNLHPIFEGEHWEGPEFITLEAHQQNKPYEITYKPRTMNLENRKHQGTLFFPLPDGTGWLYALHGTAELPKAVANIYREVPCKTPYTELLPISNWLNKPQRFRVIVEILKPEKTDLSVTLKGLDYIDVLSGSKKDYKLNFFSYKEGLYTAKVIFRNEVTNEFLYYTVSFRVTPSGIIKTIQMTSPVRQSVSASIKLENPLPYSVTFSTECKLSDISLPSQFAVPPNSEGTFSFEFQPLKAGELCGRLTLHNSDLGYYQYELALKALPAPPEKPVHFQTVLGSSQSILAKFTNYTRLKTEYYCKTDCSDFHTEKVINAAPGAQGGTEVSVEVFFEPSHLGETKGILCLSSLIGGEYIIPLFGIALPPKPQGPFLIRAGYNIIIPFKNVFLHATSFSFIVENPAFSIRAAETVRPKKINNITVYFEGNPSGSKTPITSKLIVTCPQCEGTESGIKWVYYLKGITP"},
  "source": "paper PMC12297659",
  "about": "“In situ structure of the mouse sperm central apparatus reveals mechanistic insights into asthenozoospermia” (Cell Research, 2025)",
  "assay_in_all_cases": "cryo-EM structure; in situ cryo-electron tomography with subtomogram averaging of about 200 nm cryo-FIB lamellae of wild-type mouse sperm; local maps of 5.5 Å to 18 Å; AlphaFold2 models fitted into the density",
  "key": {"[1]": {"molecular_target": "T1, KIF9 (mouse (endogenous in sperm)) (UniProt Q9WV04)", "T1 sequence": "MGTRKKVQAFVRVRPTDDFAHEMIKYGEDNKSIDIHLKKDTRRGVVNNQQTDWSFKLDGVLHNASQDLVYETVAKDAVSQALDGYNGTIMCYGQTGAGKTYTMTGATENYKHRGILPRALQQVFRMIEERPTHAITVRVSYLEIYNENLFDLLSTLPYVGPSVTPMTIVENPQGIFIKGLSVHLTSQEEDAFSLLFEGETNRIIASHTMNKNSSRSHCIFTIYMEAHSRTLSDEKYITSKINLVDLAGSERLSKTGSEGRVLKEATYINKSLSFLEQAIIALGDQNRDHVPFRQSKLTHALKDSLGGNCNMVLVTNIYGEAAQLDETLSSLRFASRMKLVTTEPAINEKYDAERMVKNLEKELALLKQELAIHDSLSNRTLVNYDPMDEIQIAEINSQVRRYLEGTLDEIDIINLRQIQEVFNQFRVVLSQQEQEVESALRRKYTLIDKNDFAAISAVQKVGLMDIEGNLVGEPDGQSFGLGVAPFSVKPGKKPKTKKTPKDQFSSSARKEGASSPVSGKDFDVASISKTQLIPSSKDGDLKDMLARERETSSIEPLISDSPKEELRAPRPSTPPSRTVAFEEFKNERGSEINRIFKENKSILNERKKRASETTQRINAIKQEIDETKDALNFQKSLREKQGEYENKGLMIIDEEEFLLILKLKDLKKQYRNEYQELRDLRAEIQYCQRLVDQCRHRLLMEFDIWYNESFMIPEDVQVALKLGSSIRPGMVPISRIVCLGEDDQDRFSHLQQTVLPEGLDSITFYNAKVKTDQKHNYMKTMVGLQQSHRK"}, "[2]": {"molecular_target": "CFAP47 (mouse (endogenous in sperm))"}, "[3]": {"molecular_target": "HYDIN (mouse (endogenous in sperm)) (UniProt Q80W93)"}, "[4]": {"molecular_target": "T2, CFAP20 (mouse (endogenous in sperm)) (UniProt Q8BTU1)", "T2 sequence": "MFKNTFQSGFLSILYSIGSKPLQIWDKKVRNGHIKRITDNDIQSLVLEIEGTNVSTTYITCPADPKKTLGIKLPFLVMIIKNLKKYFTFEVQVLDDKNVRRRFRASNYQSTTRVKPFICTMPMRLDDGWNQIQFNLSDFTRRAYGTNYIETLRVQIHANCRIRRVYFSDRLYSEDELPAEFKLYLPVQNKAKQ"}, "[5]": {"molecular_target": "T3, SPAG16 (mouse (endogenous in sperm)) (UniProt Q8K450)", "T3 sequence": "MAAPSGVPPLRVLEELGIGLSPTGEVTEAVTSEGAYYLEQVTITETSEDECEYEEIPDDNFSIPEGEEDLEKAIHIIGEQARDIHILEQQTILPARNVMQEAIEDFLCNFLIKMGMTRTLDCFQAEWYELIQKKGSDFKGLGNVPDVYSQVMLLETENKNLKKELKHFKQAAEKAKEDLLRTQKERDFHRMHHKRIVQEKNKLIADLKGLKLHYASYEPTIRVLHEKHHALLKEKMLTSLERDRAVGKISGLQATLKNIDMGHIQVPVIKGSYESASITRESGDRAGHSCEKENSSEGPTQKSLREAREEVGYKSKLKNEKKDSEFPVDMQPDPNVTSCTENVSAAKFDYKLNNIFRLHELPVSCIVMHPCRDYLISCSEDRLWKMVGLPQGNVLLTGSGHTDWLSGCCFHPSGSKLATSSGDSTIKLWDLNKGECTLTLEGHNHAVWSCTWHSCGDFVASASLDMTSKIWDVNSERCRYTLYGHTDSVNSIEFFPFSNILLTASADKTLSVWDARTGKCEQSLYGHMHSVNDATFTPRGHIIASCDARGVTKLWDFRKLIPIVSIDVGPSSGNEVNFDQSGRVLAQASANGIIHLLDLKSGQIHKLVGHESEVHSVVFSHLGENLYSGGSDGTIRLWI"}, "[6]": {"molecular_target": "T4, FAM228B (mouse (endogenous in sperm)) (UniProt Q497Q6)", "T4 sequence": "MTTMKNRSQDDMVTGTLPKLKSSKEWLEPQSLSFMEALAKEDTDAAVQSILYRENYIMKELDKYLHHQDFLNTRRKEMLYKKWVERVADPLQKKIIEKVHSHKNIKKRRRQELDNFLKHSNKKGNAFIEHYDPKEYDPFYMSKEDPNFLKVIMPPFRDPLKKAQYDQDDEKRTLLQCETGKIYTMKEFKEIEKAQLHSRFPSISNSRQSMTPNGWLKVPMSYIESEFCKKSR"}, "[7]": {"molecular_target": "HYDIN (mouse (endogenous in sperm)) (UniProt Q80W93)", "remark": "listed apart in the source"}},
  "note": "Where two headings read alike, the source gives them in different places. No constants are given. Whether binding was seen depends on the method and setting. Some entries that bind do so weakly or less than the wild type.",
  "data": [
    {"molecule": "HYDIN (from UniProt Q80W93 1-5154)", "values": [
      {"measurement": "binding", "setting": "[1]", "value": "binds"},
      {"measurement": "binding", "setting": "[2]", "value": "binds"},
      {"measurement": "binding", "setting": "[3]", "value": "binds"}
    ]},
    {"molecule": "CFAP65 (from UniProt Q3V0B4 1-1847)", "values": [
      {"measurement": "binding", "setting": "[4]", "value": "binds"},
      {"measurement": "binding", "setting": "[5]", "value": "binds"},
      {"measurement": "binding", "setting": "[6]", "value": "binds"}
    ]},
    {"molecule": "MAP1S (protein, UniProt Q8C052 1-973) MAAVMAAPEAVEAPSSLLLLVVGGECGCPGLLAYVMEELERGVRSWEDVDPAVCSLDEQLKAFVSRHSATFSSIVKGQRSLHHRGETLETLVLLNPSDKSLCDELRNLLMDPAPHKLLVLAGPCLEETGELLLQTGGFSAHHFLQVLGDKEVQDALASAPAAPALTVSCPTFGDWALLGPVPGLQLRLNPPAQLPASEGLRAFLEYVAESLEPPSPFELLEPPAAGGFLRLARPCCYVFPGGLGDAAFFAVNGFTVLVNGGSNPKSSFWKLVRHLDRVDAVLVTHAGADSLPGLNSLLRRKLAEREAAAGPQGQHEERLRRLLSPALGVVFLNAREAASRLRGGEDEAVCARSLLRSLGIAPLPLQRGPQPSCPTVLFEKLGVGRLELFVLHPPPGDPAAPACALLVWQPAAPGDKVVRVLFPGRTPPARLLDGLQRLQHLPCLRRPVVTTHDLEAPSRANSQDSLASRDSARKEPVRGTVGSIANRSTVRREPALATRDQKKDTRSGPTQPTARDTRRSGPGVVNTKPRVSQNGPRAPVLAAPLTAPVAECPGEAENILESERPPAPSPTLSPAQSPPPTAPGNSPERLSLSPLRPEPAPDASPSATTPTLTTPSLPAELGSPHSTEVDESLSVSFEQVLPAGDPGLSLPLRLARRSTSPHDVDLCLVSPCEFSHRKPPPPASPGSSDSSARSQERPPETPPTSVSESLPTLSDSDPVPVADSDDDAGSESAARDPPPTPRVPPPLPDVPGICMVDPEALPPRARQPLNTTNPSRSRKAPARPSSASATPRAATVAAKTKGPAGDRNRPLSARSEPADRPGRVPLTRKPSVPKTVPKMASATRLSSGPSGRPAPLAAGSPVYLDLAYLPGGGAGHLDQNFFLRVRALCYVISGQGQRQEEGLRAVLDALLAGKRQWDLDLQVTLIPTFDSAVMHRWYEETHAQHQALGIRVLGSGSLVSMQDEAFPACKVEF", "values": [
      {"measurement": "binding", "setting": "[7]", "value": "binds"}
    ]}
  ]
}
